Values quoted from earlier work in publication PMC4184567, “Glucuronidation of drugs in humanized UDP-glucuronosyltransferase 1 mice: Similarity with glucuronidation in human liver microsomes” (Pharmacology Research & Perspectives, 2013).

Assays:
[1] = tested on: mouse liver microsomes; details: mice; ref Court et al. [2003]; Shiratani et al. [2008]; cited from earlier work
[2] = tested on: human liver microsomes; details: humans; ref Court et al. [2003]; Shiratani et al. [2008]; cited from earlier work

CN1CC[C@]23c4c5ccc(O)c4O[C@H]2[C@@H](O)C=C[C@H]3[C@H]1C5 [morphine]
Vmax of morphine 3-glucuronidation [1]: 19 nmol/min/mg
Vmax of morphine 3-glucuronidation [2]: 2.7 nmol/min/mg
